Measurements taken from paper PMC9241672.
Protein sequences can lack the tags named with them.

Columns and labels:
[1] = target: T1, His-ArgR2 (Lactiplantibacillus plantarum AR195) (UniProt Q8VL04); experiment: BLI; conditions: ArgR2 256-4097 nM; BLI: 10 mM HEPES pH 8.0, 2 mM MgCl2, 0.1 mM EDTA, 200 mM KCl, 1 per mille (w/v) BSA and 2 per mille (v/v) Tween 20 in protein buffer; temperature not stated; recombinant protein; residues 1-152; protein details: His tag (pET30a); label: biotin (universal primer S1); probe letters rebuilt from the primers and the genome
T1 sequence (looked up): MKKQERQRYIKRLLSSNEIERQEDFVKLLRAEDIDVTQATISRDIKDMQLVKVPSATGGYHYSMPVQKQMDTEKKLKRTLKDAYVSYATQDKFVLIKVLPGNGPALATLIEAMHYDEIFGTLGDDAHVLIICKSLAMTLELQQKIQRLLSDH

[2] = target: T1, His-ArgR2 (Lactiplantibacillus plantarum AR195); experiment: EMSA; conditions: ArgR2 0.0425-0.17 mg/mL, saturated at 0.085 mg/mL; EMSA: Beyotime chemiluminescent kit, buffer not stated; recombinant protein; residues 1-152; protein details: His tag (pET30a); label: biotin (universal primer S1); probe letters rebuilt from the primers and the genome

AGCCAGTGGCGATAAGGCACAATGAACGGTTGCAGTATTAAGAAAATAAATCCAATTATAATGATGCGCATGTAAGCTAAGAAGGGCTGACGTGCGTTTTTATTAGCTAATTAAAGTTGGAACCACACTTTAGTTAGTTATAATTGTGAACTAACACACATGTATAAAAGCTACAGTTTAATCGTCGTAAGACTAGTACTTTTATCCATTACTCAAATAAATTTAGTGGGTTAATATGAAAGCGTAGTCAAGATAAATGACCGGTCATCAGGTTAATGTTTACTGATAAGTTAATAAAATCACAATTTCATCGAGGAGGACGCAAAACATCCTTATCGCCACTGGCT (double strand) [cla promoter probe]
Kd [1]: < 1 pM
binding result [2]: binds
